The values below come from the supplement of paper PMC8256030.

Each structure is given as a SMILES string. Where “and” joins values, the source holds several entries; their conditions need not be identical. Equal values may be shown once. Some of the results follow. This data set is noisy: repeats of one test often differ as much as different tests do.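 HEK293T cells were given each compound shortly before transfection with a reporter in which red mCherry is followed by the SARS-CoV-2 frameshift element and then GFP in the −1 frame, so GFP appears only after frameshifting.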

The test system of this experiment is HEK293T. In words: percent viability (nuclei count) relative to control; higher = more viable cells. The following applies: 10 µM; 24 h.
For the compound `CC(C)(C(=O)O)c1ccc(C(=O)CCCN2CCC(OC(c3ccccc3)c3ccccc3)CC2)cc1` [carebastine], the percent viability came out at 240%. `CC1=C(/C=C/C(C)=C/C=C/C(C)=C/CO)C(C)(C)CCC1` [retinol]: the percent viability turned out to be 168%.

`O=C(OCc1ccccc1)c1ccccc1`: the percent viability is 459%. Turning to `C#C[C@]1(O)CC[C@H]2[C@@H]3CCC4=CC(=O)CC[C@@H]4[C@H]3C(=C)C[C@@]21CC` [etonogestrel], the percent viability amounted to 247%. `CC(C)[C@@H](C)/C=C/[C@@H](C)[C@H]1CC[C@H]2/C(=C/C=C3\C[C@@H](O)CC[C@@H]3C)CCC[C@]12C` [Antitanil]: the percent viability was 208%. `CC(C)=CCC/C(C)=C/CC/C(C)=C/CSc1ccccc1C(=O)O` [salirasib]: the percent viability amounted to 151%. For the compound `CC(C)(CO)[C@@H](O)C(=O)NCCCO` [dexpanthenol], the percent viability turned out to be 287%. `CC(=O)NCCCCCC(=O)O` [acexamic acid]: the percent viability worked out at 336%. As for `O=C1c2ccccc2C(=O)C1c1ccccc1` [phenindione], the percent viability is 422%. As to `COC(=O)[C@H]1[C@H]2C[C@@H]3c4[nH]c5cc(OC)ccc5c4CCN3C[C@H]2C[C@H](OC)[C@@H]1OC` [metoserpate], the percent viability stood at 66.3%. Take `CCc1ccc(CCOc2ccc(CC3SC(=O)NC3=O)cc2)nc1` (stereo not given) [Pioglitazone]: the percent viability came out at 161%.

Regarding `CC1(C)C[C@@H]1C(=O)N/C(=C\CCCCSC[C@H](N)C(=O)O)C(=O)O` [Cilastatin], the percent viability is 200%. For `CC(C)[N+]1(C)[C@@H]2CC[C@H]1CC(OC(=O)C(CO)c1ccccc1)C2` (stereo not given in full), the percent viability came to 180%. Consider `CC(=O)Oc1cccc(C)c1`, for which the percent viability amounted to 83.8%. As for `CN(C)[C@@H]1C(=O)C(C(=O)NCN2CCCC2)=C(O)[C@@]2(O)C(=O)C3=C(O)c4c(O)cccc4[C@@](C)(O)[C@H]3C[C@@H]12` [Rolitetracycline], the percent viability worked out at 339%. For `CCC(C)C(C(=O)OC1CC[N+](C)(C)CC1)c1ccccc1` (stereo not given) [pentapiperium metilsulfate] the value was 102%. With `Nc1ncnc(Nc2ccccc2)n1` [amanozine], the percent viability worked out at 32.7%. Then `CN(C)CCCN1c2ccccc2Sc2ccc(C(F)(F)F)cc21` [triflupromazine], with 443%. For the compound `Nc1nnc(-c2cccc(Cl)c2Cl)c(N)n1` [lamotrigine], the percent viability is 297% and 187%. Turning to `CC(C)c1nc(N(C)S(C)(=O)=O)nc(-c2ccc(F)cc2)c1/C=C/[C@@H](O)C[C@@H](O)CC(=O)O` [rosuvastatin], the percent viability worked out at 173%. For the compound `CCC1(c2ccccc2)NC(=O)N(C)C1=O` (stereo not given) [mephenytoin], the percent viability is 267%.

As for `O=C1[C@@H]2[C@H]3CC[C@H](C3)[C@@H]2C(=O)N1C[C@@H]1CCCC[C@H]1CN1CCN(c2nsc3ccccc23)CC1` [lurasidone], the percent viability is 231%. For `CCC(C)C(CC)C(N)=O` (stereo not given) [valnoctamide] the value was 62.8%; for `CC1(C)S[C@@H]2[C@H](NC(=O)C(C(=O)O)c3ccccc3)C(=O)N2[C@H]1C(=O)O` (stereo not given in full), 187%; for `CCN(CC)CCOC(=O)C(c1ccccc1)C1CCCCC1` (stereo not given) [drofenine], 357%.
